# Data reported in patent US8258256.
# Protein sequences, listed by entry. Tags and fused reporters are not part of them. Residues count along the entry.
# UniProt P02769, residues 25-607: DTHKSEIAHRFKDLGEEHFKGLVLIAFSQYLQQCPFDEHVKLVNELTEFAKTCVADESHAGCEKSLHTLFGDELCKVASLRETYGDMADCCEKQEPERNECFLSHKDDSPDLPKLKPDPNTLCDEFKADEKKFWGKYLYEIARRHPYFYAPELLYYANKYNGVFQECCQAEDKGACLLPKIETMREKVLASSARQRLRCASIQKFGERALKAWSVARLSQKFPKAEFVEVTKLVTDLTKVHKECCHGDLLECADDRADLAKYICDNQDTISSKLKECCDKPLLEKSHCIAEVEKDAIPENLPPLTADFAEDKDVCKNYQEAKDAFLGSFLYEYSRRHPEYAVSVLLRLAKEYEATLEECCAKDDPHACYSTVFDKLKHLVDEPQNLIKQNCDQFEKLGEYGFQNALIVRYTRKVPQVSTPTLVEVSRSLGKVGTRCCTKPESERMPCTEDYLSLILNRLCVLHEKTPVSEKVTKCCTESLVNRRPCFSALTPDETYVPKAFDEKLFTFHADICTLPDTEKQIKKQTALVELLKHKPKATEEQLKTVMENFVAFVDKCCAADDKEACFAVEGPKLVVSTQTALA
# These are yes or no findings as the source states them, for the method shown. Some results given as binding are weak or reduced against the parent protein; the word gives no strength.
# Biological target: BSA (UniProt P02769)
# Assay: ELISA, biotinylated control peptide on immobilized BSA (non-specific)
binder,measurement,value
QMARIPKRLARHK (biotin on the C-terminal Lys) [non-selected control peptide …-biotin],binding,binds
